Some of the results follow. Many values rest on one well or one pass, so single values are uncertain.
Legend:
A2780 = assay: cell growth inhibition ratio vs untreated control (CCK8); higher = stronger inhibition of cell viability; conditions: 10 µM; 48 h
Procedure: (§1)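 Natural product library (Topscience) screened at 10 µM final concentration for 48 h on ovarian cancer A2780 cells and patient-derived ovarian cancer cells (PDC) in 96-well plates; viability read by CCK8 and reported as inhibition ratio (%) relative to untreated control. Single-dose primary screen.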

[1] = system: patient-derived ovarian cancer cells (PDC); assay: as above; conditions: 10 µM; 48 h
Procedure: as §1

Row | SMILES | cell growth inhibition ratio (A2780) [%] | cell growth inhibition ratio [1] [%]
1 | COc1cc2c(cc1CC=C(C)C)C(=O)C[C@@H](c1ccc(O)cc1)O2 [Bavachinin] | 16.2 | 6.89
2 | OC[C@H]1O[C@H](O[C@H]2O[C@H](CO)[C@@H](O)[C@H](O)[C@H]2O)[C@H](O)[C@@H](O)[C@@H]1O [D-(+)-Trehalose dihydrate] | 9.26 | 10.3
3 | CC1(C)O[C@H]2CC(=O)OC[C@]23[C@H]2CC[C@@]4(C)[C@H](c5ccoc5)OC(=O)[C@H]5O[C@]54[C@]2(C)C(=O)C[C@@H]13 [Limonin] | -1.69 | -8.23
4 | OCC1OC(OC2C(CO)OC(O)C(O)C2O)C(O)C(O)C1O [D-Cellobiose] | -0.523 | -9.81
5 | C#C[C@]1(O)CC[C@H]2[C@@H]3CCc4cc(O)ccc4[C@H]3CC[C@@]21C [Ethynyl estradiol] | 77.6 | 15.8
6 | N[C@@H](Cc1cc(I)c(Oc2ccc(O)c(I)c2)c(I)c1)C(=O)O [Lyothyronine] | -1.86 | -5.39
7 | OC[C@H]1O[C@@H](Oc2c(O)cc(O)cc2/C=C/c2ccc(O)cc2)[C@H](O)[C@@H](O)[C@@H]1O [Astragalus polyphenols] | -3 | -11.6
8 | COc1cc(CCC(C)=O)ccc1O [Vanillylacetone] | 13 | 8.43
9 | Cc1c(C(=O)NCCO)[n+]([O-])c2ccccc2[n+]1[O-] [Olaquindox] | 8.57 | 3.71
10 | Nc1[nH]cnc2ncnc1-2 [Adenine] | 2.29 | -2.94
11 | O=c1[nH]cnc2c1ncn2[C@H]1C[C@H](O)[C@@H](CO)O1 [2'-Deoxyinosine] | -2.56 | 21.6

Source: the supplement of paper PMC10373366
